Laboratory results as given in paper PMC2990700.

Amino acid sequences for entries named in this document (tags omitted). A change or cut given only in a name is not applied to a line headed by its entry.
UniProt Q9DCH4: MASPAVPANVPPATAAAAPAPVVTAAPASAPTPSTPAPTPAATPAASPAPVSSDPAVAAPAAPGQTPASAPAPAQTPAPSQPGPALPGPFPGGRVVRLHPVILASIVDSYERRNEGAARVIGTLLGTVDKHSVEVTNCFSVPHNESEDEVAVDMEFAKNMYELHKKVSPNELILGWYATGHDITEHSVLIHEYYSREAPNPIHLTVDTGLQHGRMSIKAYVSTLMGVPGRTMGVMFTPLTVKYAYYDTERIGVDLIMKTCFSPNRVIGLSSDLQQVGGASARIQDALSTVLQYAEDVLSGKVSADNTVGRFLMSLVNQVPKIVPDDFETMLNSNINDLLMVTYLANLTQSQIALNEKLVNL

Target: T1, VSV-tagged Deltex1 (VSV-DTX) (UniProt Q86Y01)
T1 sequence: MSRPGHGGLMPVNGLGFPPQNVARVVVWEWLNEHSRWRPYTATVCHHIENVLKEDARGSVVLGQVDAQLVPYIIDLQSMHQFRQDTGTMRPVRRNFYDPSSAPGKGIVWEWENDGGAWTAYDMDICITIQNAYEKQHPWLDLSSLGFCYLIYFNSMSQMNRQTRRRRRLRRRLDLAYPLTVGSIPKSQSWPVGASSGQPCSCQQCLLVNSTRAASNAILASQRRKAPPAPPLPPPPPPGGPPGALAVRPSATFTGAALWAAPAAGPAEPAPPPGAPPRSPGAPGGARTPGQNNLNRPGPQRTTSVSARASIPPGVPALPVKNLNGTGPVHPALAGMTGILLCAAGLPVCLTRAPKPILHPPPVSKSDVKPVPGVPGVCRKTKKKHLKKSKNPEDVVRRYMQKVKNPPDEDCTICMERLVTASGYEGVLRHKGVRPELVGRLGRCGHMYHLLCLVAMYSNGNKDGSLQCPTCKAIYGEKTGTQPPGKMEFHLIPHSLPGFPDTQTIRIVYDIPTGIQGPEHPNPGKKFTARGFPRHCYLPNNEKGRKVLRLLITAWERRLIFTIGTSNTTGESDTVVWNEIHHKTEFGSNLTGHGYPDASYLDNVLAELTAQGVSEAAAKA
Experiment: co-IP; HEK293T cotransfected with eIF3f forms and VSV-DTX; IP with anti-VSV, precipitates eluted with VSV peptide; Western blot

HA-tagged murine eIF3f catalytic mutant (meIF3f Mut) (from UniProt Q9DCH4)
binding: binds

These are yes or no findings as the source states them, for the method shown. In cells and extracts the contact can be indirect. A result given as binding can be weak or reduced; the word gives no strength. Sequences can lack the tags named with a protein.
